Taken from: PubChem BioAssay AID1224830 (NIAID, 2016)
Purpose: 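Genes whose knock-down alters the TNF-alpha reporter response to LPS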 (primary screen). System: human THP-1 monocytic leukaemia cells, TNF dual-luciferase reporter clone, PMA-differentiated to macrophage-like cells. Reagents: siRNA pool against human genes, 50 nM. Time to read-out: LPS for 4 h, given about 3 days after siRNA transfection. Treatment: bacterial LPS (TLR4 ligand), 10 ng/ml. Read-out: 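TNF firefly reporter luminescence divided by renilla, normalised to the plate median, then turned into a robust z-score for each replicate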. Reading the numbers: TNF reporter robust z-score: higher = stronger TNF reporter response to LPS. Call rule: 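Each well counts as active if its z-score is over 2.8 or under -1.5; controls are left without a call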.
Shown is an unselected part of about 18,000 deposited reagents. About 2,900 of all reagents (16%) count as active. 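Calls are made per well; low scores hint the gene aids the LPS response, high scores that it dampens it.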 Entries without a mark were called inactive. Repeated entries: four replicate wells of each siRNA pool.

Knock-down of DESI2 resulted in: TNF reporter robust z-score 0.84.
Against DESI2, the entry reads TNF reporter robust z-score 0.12.
Depletion of DESI2 resulted in: TNF reporter robust z-score 0.62.
Depletion of DESI2 gave: TNF reporter robust z-score 0.13.
With knock-down of FOXRED2 the results were TNF reporter robust z-score 0.78.
Knock-down of FOXRED2 came out at: TNF reporter robust z-score -0.56.
Knock-down of FOXRED2 gave: TNF reporter robust z-score 0.99.
Silencing of FOXRED2 gave: TNF reporter robust z-score -0.01.
Knock-down of PBX3 gave: TNF reporter robust z-score -0.63.
Depletion of PBX3 gave: TNF reporter robust z-score -0.11.
Depletion of PBX3 came out at: TNF reporter robust z-score -0.46.
With knock-down of PBX3, the screen gave TNF reporter robust z-score 0.42.
Silencing of FAM177B gave: TNF reporter robust z-score -1.13.
Knock-down of FAM177B came out at: TNF reporter robust z-score -0.64.
Against FAM177B, the entry reads TNF reporter robust z-score -0.33.
Silencing of FAM177B came out at: TNF reporter robust z-score 0.19.

Additional reagents:
POC5 gave TNF reporter robust z-score 2.34.
With knock-down of POC5, the screen gave TNF reporter robust z-score 2.15.
For POC5, the values are TNF reporter robust z-score 0.07.
For POC5, the values are TNF reporter robust z-score 0.04.
Depletion of HUS1 came out at: TNF reporter robust z-score -0.68.
HUS1 scored TNF reporter robust z-score 0.67.
After knock-down of HUS1 the results were TNF reporter robust z-score -0.79.
With knock-down of HUS1 the results were TNF reporter robust z-score -0.18.
GRAMD2A gave TNF reporter robust z-score -1.42.
Knock-down of GRAMD2A gave: TNF reporter robust z-score -1.67 (active).
GRAMD2A showed TNF reporter robust z-score -1.1.
GRAMD2A showed TNF reporter robust z-score -0.59.
Silencing of ZNF124 gave: TNF reporter robust z-score 0.1.
With knock-down of ZNF124 the results were TNF reporter robust z-score 2.42.
With knock-down of ZNF124, the screen gave TNF reporter robust z-score 0.08.
Against ZNF124, the entry reads TNF reporter robust z-score -0.81.
With knock-down of AHDC1 the results were TNF reporter robust z-score 1.32.
AHDC1 gave TNF reporter robust z-score 1.81.
AHDC1 scored TNF reporter robust z-score 0.
Against AHDC1, the entry reads TNF reporter robust z-score 0.81.
Knock-down of OR5M1 resulted in: TNF reporter robust z-score 0.12.
After knock-down of OR5M1, the record shows TNF reporter robust z-score 0.84.
After knock-down of OR5M1, the screen gave TNF reporter robust z-score 0.91.
After knock-down of OR5M1, the screen gave TNF reporter robust z-score 1.4.
Silencing of MYO1C gave: TNF reporter robust z-score -0.71.
With knock-down of MYO1C, the screen gave TNF reporter robust z-score -0.83.
Silencing of MYO1C came out at: TNF reporter robust z-score -0.61.
MYO1C showed TNF reporter robust z-score -0.47.
TAF7 scored TNF reporter robust z-score -0.92.
After knock-down of TAF7, the record shows TNF reporter robust z-score 0.67.
TAF7 showed TNF reporter robust z-score -0.24.
After knock-down of TAF7, the screen gave TNF reporter robust z-score 1.13.
